The source of these data is US20040053310, “Exhaustive selection of RNA aptamers against complex targets” (published 2004).

One series concerns the target T1, bvHSF (untagged HSF) (UniProt P22813).
T1 sequence (looked up, limits assumed): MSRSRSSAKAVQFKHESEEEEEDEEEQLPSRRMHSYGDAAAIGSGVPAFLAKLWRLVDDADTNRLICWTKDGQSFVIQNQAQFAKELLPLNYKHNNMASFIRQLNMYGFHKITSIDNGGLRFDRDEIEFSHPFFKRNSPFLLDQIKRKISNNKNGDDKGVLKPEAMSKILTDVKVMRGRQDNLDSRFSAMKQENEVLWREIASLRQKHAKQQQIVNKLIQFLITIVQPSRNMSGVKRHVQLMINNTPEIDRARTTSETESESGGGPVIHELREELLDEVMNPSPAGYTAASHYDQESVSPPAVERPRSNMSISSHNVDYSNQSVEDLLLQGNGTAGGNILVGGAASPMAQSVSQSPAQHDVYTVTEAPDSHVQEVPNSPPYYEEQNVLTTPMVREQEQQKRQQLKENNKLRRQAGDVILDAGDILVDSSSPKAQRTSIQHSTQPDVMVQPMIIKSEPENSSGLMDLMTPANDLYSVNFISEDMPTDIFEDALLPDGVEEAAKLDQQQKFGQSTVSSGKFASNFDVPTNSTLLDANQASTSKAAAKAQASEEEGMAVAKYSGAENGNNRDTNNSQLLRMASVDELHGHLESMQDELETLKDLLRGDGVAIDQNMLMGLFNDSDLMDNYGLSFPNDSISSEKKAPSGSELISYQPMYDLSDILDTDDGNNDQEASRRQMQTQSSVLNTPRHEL
The series is described as follows: EMSA. The conditions noted are these: crude Sf9 extract; protein in a lysate after overexpression.

The target of a further series is T2, heat shock factor (HSF) (UniProt P22813).
T2 sequence (looked up, limits assumed): T1 sequence (looked up, limits assumed)
The series is described as follows: EMSA. The conditions noted are these: 100 nM HSF, purified recombinant protein.

For part of these data: A weaker result is weaker than the reference pair of the same experiment. Protein sequences can lack the tags named with them. For part of these data: Results from cells or extracts need not show a direct contact.

With “GGGAGAAUUCAACUGCCAUCUAGGCAUCGCGAUACAAAAUUAAGUUGAACGCGAGUUCUCCAUCUAGUACUACAAGCUUCUGGACUCGAU [RA1-HSF (14-1)]”, in the series with bvHSF (untagged HSF), the binding result was “binds”. For “GGGAGAAUUCAACUGCCAUCUAGGCAAGUAGCUAGGAGUCCUUCUCCCCUCAAAACAGAAUGGGGAGUACUACAAGCUUCUGGACUCGAU [14-2]”, the binding result with heat shock factor (HSF) (weaker than RA1-HSF) is listed as “binds more weakly”.

With “GGGAGAAUUCAACUGCCAUCUAGGCGGCAAGCUACGCGUCAAAUAGCAAGCACACCGAAGACACAAGUACUACAAGCUUCUGGACUCGAU [9a-1]”, in the series with heat shock factor (HSF) (weak affinity), the binding result is given as “binds more weakly”.
